# From paper PMC10985091
# By UniProt entry, the sequences of proteins in these tests, tags left out. Where a name states a change or a piece, a line headed by the entry shows the natural chain unless it says otherwise.
# UniProt Q13309: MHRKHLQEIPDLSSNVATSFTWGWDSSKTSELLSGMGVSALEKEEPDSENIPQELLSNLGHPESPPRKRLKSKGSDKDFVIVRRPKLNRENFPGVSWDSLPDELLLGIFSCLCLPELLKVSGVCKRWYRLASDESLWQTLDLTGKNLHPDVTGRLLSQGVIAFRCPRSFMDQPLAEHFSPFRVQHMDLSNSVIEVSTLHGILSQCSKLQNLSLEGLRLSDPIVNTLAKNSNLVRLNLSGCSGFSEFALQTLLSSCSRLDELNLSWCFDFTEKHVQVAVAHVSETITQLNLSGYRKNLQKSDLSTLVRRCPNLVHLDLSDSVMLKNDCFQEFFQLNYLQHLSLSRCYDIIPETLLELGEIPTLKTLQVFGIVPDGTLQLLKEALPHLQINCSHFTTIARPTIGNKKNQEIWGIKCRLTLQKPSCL
# UniProt P18754: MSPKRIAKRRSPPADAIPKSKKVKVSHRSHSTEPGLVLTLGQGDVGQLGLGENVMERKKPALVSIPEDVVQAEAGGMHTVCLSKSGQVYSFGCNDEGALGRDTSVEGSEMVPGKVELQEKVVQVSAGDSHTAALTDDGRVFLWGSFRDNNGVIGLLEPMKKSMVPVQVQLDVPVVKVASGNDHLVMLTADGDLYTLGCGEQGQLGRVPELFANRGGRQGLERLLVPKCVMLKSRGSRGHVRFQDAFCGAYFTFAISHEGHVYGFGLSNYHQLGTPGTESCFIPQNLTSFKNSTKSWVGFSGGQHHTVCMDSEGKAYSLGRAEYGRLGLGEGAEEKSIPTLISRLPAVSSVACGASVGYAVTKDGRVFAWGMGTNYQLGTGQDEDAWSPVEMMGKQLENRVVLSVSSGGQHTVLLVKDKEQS
# These are yes or no findings as the source states them, for the method shown. Binding seen in cells or lysates may run through a third protein. A result given as binding can be weak or reduced; the word gives no strength.
# Target: Skp2^AA (RxxL motif in D-box I mutated to AxxA) (UniProt Q13309)
# Assay: co-IP; exogenous co-immunoprecipitation from HEK 293T cells transfected 48 h; IP buffer 250 mM NaCl, 50 mM Tris, 0.5 mM EDTA, 0.5% NP-40; indicated antibody and protein A-agarose overnight at 4 °C; RCC1 detected by anti-flag (M2), Skp2 by anti-myc
substance,measurement,value
Flag-RCC1 (from UniProt P18754 1-421),binding,binds
